Earlier results in PMC9124651, “High-performance thin-layer chromatography in combination with an acetylcholinesterase-inhibition bioassay with pre-oxidation of organothiophosphates to determine neurotoxic effects in storm, waste, and surface water” (Analytical and Bioanalytical Chemistry, 2022).
Some ranges recur; such a range may be that of the whole group of compounds.

Test system: esterase
Conditions: apple juice and tap water samples; HPTLC multi-enzyme inhibition assay with prior oxidation; cited from earlier work

Compound | Recoveries
CCOP(=O)(OCC)Oc1ccc([N+](=O)[O-])cc1 [Paraoxon, paraoxon] | 91–106%
CCOP(=S)(OCC)Oc1nc(Cl)c(Cl)cc1Cl [Chlorpyrifos, chlorpyrifos] | 91–106%
CCOP(=S)(OCC)Oc1ccc([N+](=O)[O-])cc1 [Parathion, parathion] | 91–106%
